Source: PubChem BioAssay AID1439 (NMMLSC, 2008)
Screen size: about 220,000 compounds; about 770 (0.35%) were called active. Inconclusive means that the source gave no clear call. Such entries were picked first, then a sample of the others. No stated cut-off is given here; in the data, active means binding response below about 49% or above about 150%; inconclusive means no clear call, values can overlap the other calls; inactive means in between.

By UniProt entry, the sequences of proteins in these tests, tags left out.
UniProt P09471, whole entry, looked up: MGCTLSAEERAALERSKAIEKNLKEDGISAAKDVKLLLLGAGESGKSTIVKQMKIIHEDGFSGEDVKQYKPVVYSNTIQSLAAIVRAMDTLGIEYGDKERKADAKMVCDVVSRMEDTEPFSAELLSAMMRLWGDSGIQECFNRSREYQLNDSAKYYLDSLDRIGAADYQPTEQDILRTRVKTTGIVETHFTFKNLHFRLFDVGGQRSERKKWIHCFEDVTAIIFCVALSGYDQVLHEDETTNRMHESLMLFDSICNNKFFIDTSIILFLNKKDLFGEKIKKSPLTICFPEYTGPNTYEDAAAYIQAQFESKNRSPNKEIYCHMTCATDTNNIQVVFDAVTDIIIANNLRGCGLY

Each compound was assayed against Guanine nucleotide-binding protein G(o) subunit alpha (Homo sapiens) (UniProt P09471) (assay: RGS7-Galphao binding modulators, primary screen, biochemical, multiplexed bead flow cytometry (AID 1439;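 further: fluorescent Galphao held in activated GDP-AlF4 state binding bead-coupled RGS7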)). Settings: at 10 µM, actives lie on both sides.

Row | Compound | binding response (% of control)
1 | CCOC(=O)c1c(NC(=O)Nc2ccc(C)cc2)sc2c1CCN(C)C2 | inconclusive: 111%
2 | O=C(COc1ccc2ccccc2c1)N1CCN(C(=O)c2cccnc2)CC1 | inactive: 133%
3 | COCCCNc1nc2nonc2nc1N(C)CC1CCCN1C (centres undefined) | inactive: 102%
4 | C1=Cc2ccccc2Nc2ccccc21 | inconclusive: 28.2%
5 | CCOc1nc(NCCO)nc(Nc2cc(Cl)ccc2OC)n1 | inactive: 89.5%
6 | Cc1ccc(-c2noc(-c3c(C)noc3C)n2)cc1 | inconclusive: 48.1%
7 | CN1CCN(C(=S)NC(=O)c2ccc(Br)cc2)CC1 | inconclusive: 61.1%
8 | CC(=O)N1CCN(C(=S)c2ccc([N+](=O)[O-])cc2)CC1 | inactive: 101%
9 | CN1CCN(S(=O)(=O)c2ccc(Oc3ccc(F)cc3Br)nc2)CC1 | inconclusive: 86.9%
10 | COc1ccc(C2c3ccc(O)cc3Oc3ncn(CCN4CCOCC4)c(=N)c32)cc1 (centres undefined) | inconclusive: 85.7%
11 | COc1cc2nc(CN3CCC(C(O)(c4ccccc4)c4ccccc4)CC3)[nH]c(=O)c2cc1OC | inconclusive: 90.5%
12 | CCCCC(C)n1[nH]c(=O)c2c(C)cc(C)nc21 (centres undefined) | inconclusive: -196%
13 | Cc1ccc(-n2nc(C)c(=O)c(-c3ccccc3)c2NC(=O)c2cccs2)cc1 | inconclusive: 109%
14 | COCCn1c(N/N=C(C)/C=C/c2ccccc2)nc2c1c(=O)[nH]c(=O)n2C | inactive: 100%
15 | COc1ccc(NC(=O)COC(=O)COc2cccc(Br)c2)cc1OC | inconclusive: 112%
16 | Cc1ccc(NC(=O)CN(C)C(=O)c2ccc(S(=O)(=O)N(C)c3ccccc3)cc2)cc1 | inactive: 111%
17 | C/C=C/C(=O)OCC(=O)Nc1ccc(OC)c(OC)c1 | inconclusive: 103%
18 | O=C(Nc1cc(Cl)ccn1)C1(c2ccccc2)CC1(Cl)Cl (centres undefined) | inconclusive: 105%
19 | CCCCNC(=O)NC1CCCC1 | inactive: 102%
20 | Cc1oc(C(C)(C)C)cc1C(=O)Nc1ccc2c(c1)OCO2 | inconclusive: 66.2%

Row | Compound | binding response (% of control)
21 | COc1ccc(OCC(=O)N2CCN(c3nnc(-c4ccccc4)c4ccccc34)CC2)cc1 | active: 15%
22 | Cc1ccc(/C=N/n2cnc3sc(C)c(C)c3c2=O)o1 | inconclusive: 103%
23 | CCc1ccc(C(N)=S)cc1 | inconclusive: 95.5%
24 | Cc1ccc(N=Nc2cc(C)ccc2N)cc1 | inconclusive: 121%
25 | O=C(NCCc1c[nH]c2ccccc12)C(=O)Nc1ccccc1 | inconclusive: 106%
26 | CNNC(=S)Nc1cccc(SC)c1 | inconclusive: 162%
27 | COc1ccc(NC(=O)N2c3ccccc3C(C)=CC2(C)C)cc1 | inconclusive: 84%
28 | CN(C)/C=C1/C=C(C=O)OC1=O | inconclusive: 98.3%
29 | CCOC(=O)CN1NC2(CCCCCCC2)NC1=S | inconclusive: 68.8%
30 | NNC(=O)c1sccc1OCc1ccc(Cl)cc1Cl | inconclusive: 87%
31 | COC(=O)CN(C#N)c1nc(NC(C)C)nc(NC(C)C)n1 | inconclusive: 111%
32 | O=C(NNC(=O)c1ccc2c(c1)OCO2)NC12CC3CC(CC(C3)C1)C2 | inactive: 101%
33 | c1ccc(CN(Cc2ccccc2)c2c3c(nc4ncnn24)CCC3)cc1 | inconclusive: 101%
34 | CC(C)n1c(O)c(/C=C2\C=NN=C2c2ccccc2)sc1=S | inconclusive: 64.2%
35 | O=C1NC(=Nc2cccnc2)S/C1=C\c1cccc(F)c1 | inconclusive: 82.3%
36 | COc1ccc(-c2coc3c(CN4CCOCC4)c(O)ccc3c2=O)cc1 | inconclusive: 114%
37 | O=C(c1cnn(C(=O)c2cccc(S(=O)(=O)N3CCOCC3)c2)c1)c1cc(Cl)cc(Cl)c1O | inconclusive: 99%
38 | CCOC(=O)c1oc2cccc(OCC(O)CNC(C)C)c2c1C (centres undefined) | active: 184% [activator]
39 | COc1ccccc1C(=O)CSc1cccc[n+]1[O-] | inconclusive: 96.1%
40 | CC(C)Cc1nc2c(nnn2Cc2ccccc2F)c(=O)[nH]1 | inconclusive: 130%

Ordered by length of the SMILES (low to high): part of the list above.
Row | Compound | binding response (% of control)
28 | CN(C)/C=C1/C=C(C=O)OC1=O | inconclusive: 98.3%
35 | O=C1NC(=Nc2cccnc2)S/C1=C\c1cccc(F)c1 | inconclusive: 82.3%
34 | CC(C)n1c(O)c(/C=C2\C=NN=C2c2ccccc2)sc1=S | inconclusive: 64.2%

(listing goes on)

Row | Compound | binding response (% of control)
41 | CCOc1ccc(NC(=S)C(C#N)=C2N(C)c3ccccc3N2C)cc1 | inactive: 95.7%
42 | CC(=O)O[C@@H]1[C@H]2[C@@H](C[C@@H](C)[C@@H]3C=CC(=O)[C@@]13C)OC(=O)[C@@H]2C | inconclusive: 105%
43 | CCC(C(=O)Nc1nc(C)c(C(=O)OC)s1)c1ccccc1 (centres undefined) | inconclusive: 125%
44 | O=C(CCC1CCCN(C(=O)c2cncs2)C1)NCc1ccc(F)c(F)c1 (centres undefined) | active: 231% [activator]
45 | c1ccc(CN2CCC(N3CCN(Cc4ccc5c(c4)OCO5)CC3)CC2)cc1 | inconclusive: 77.8%
46 | COc1cc(/C=N/NC(=O)c2cncc(Br)c2)cc([N+](=O)[O-])c1O | inconclusive: 139%
47 | Cc1ccc(-c2nn(-c3ccccc3)cc2/C=C/C(=O)Nc2cccc(S(N)(=O)=O)c2)cc1 | inconclusive: 99.8%
48 | Cn1cccc1/C=N/N1CCN(Cc2cccc3ccccc23)CC1 | inconclusive: 80.2%
49 | COC(=O)C1=C(Nc2ccccc2NC(=O)CCCC(=O)O)CSC1 | inconclusive: 97.9%
50 | Cc1cccc(NC(=O)C2Cc3ccccc3CN2C(=O)OCc2ccccc2)c1C (centres undefined) | inactive: 90.1%
51 | CCN(Cc1cc(=O)n2ccsc2n1)c1cccc2ccccc12 | inactive: 92.6%
52 | CCOc1ccc(N(CC(=O)Nc2ccc(C)c(C)c2)S(=O)(=O)c2c(C)[nH]c(=O)[nH]c2=O)cc1 | inconclusive: 85.5%
53 | CCC(C(=O)OCCOCCN(CC)CC)c1ccccc1 (centres undefined) | inconclusive: 120%
54 | O=C(CSc1ncc(C(F)(F)F)cc1Cl)N1CCN(S(=O)(=O)c2ccc3ccccc3c2)CC1 | inactive: 102%
55 | NC(=S)Nc1cccc(F)c1 | inconclusive: 31.7%
56 | Cc1nn(CC(=O)Nc2cccnc2)c(C)c1[N+](=O)[O-] | inactive: 103%
57 | COc1ccc(-c2nnn(-c3ccc(Cl)cc3Cl)c2N)cc1 | inconclusive: 97.7%
58 | COc1ccc(NC(=O)/C(C#N)=C\c2ccc(Br)o2)cc1 | inconclusive: 22.1%
59 | CC1CC(C)CN(C(=O)c2cccc(S(=O)(=O)Nc3cc(C(F)(F)F)ccc3Cl)c2)C1 (centres undefined) | inactive: 100%
